Reference: US20100021940A1 (ASTRAZENECA AB, priority 2006, published 2010)

Experiment: general procedure: peptide synthesis; HBTU/DIEA
Conditions: late stage modification step; for final HPLC purity: UV=220 nm, HPLC system B

Row | Substance | step yield [%] | final HPLC purity [%]
1 | Methyl 1-acetyl-L-prolyl-L-leucylglycyl-α-[4-(5-p-tolyl-[1,3,4]oxadiazol-2-yl)-phenylamino]-glycyl-L-leucylglycinate slow D-like diastereomer | 8 | 
2 | Methyl 1-acetyl-L-prolyl-L-leucylglycyl-α-(4-nitrophenylamino)-glycyl-L-leucyl-β-alaninate slow D-like diastereomer | 17 | >99
3 | Methyl 1-acetyl-L-prolyl-L-leucylglycyl-α-(4-nitrophenylamino)-glycyl-L-leucylglycinate slow D-like diastereomer | 16 | 
4 | Methyl 1-acetyl-L-prolyl-L-leucylglycyl-α-R-(4-nitrophenylamino)-glycyl-L-leucyl-β-alaninate | 22 | >99
5 | Methyl 1-acetyl-L-prolyl-L-leucylglycyl-α-R-(4-nitrophenylamino)-glycyl-L-leucylglycinate | 9 | 
6 | Methyl 1-acetyl-L-prolyl-L-leucylglycyl-α-R-[4-(5-p-tolyl-[1,3,4]oxadiazol-2-yl)-phenylamino]-glycyl-L-leucylglycinate | 36 | 
